In patent publication US20200299375A1 one finds binding data, which are given here for 3 molecules.

T1: recombinant human TNFβ (human) (UniProt P01374)
T1 sequence (looked up): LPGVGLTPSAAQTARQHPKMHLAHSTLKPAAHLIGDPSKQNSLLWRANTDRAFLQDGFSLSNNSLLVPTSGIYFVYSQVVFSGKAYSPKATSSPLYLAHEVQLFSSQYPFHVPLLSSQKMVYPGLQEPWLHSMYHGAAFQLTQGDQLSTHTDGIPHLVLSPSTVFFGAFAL

B1: 17-22-B03-sc02 (scFv)
scFv: MDIQMTQSPSSLSASVGDRVTIKCQASQSISSYLAWYQQKPGKAPKLLIYKASTLASGVPSRFSGSGSGTEFTLTISDLEPADFATYYCQCTYYEPSYVFRAFGGGTKLTVLGGGGGSGGGGSGGGGSGGGGSEVQLVESGGGLVQPGGSLRLSCKASGIDFSAGYDMCWVRQAPGKGLEWIACIDSRREESDYASWAKGRFTISKDSSKNTVYLQMNSLRAEDTAVYYCARGGYGGDGVDGAFDPWGQGTLVTVSS
B2: 17-22-B03-sc08 (scFv)
scFv: MDIQMTQSPSSLSASVGDRVTITCQASQSISSYLAWYQQKPGKAPKLLIYKASTLASGVPSRFSGSGSGTDFTLTISSLQPEDFATYYCQCTYYEPSYVFRAFGGGTKLTVLGGGGGSGGGGSGGGGSGGGGSEVQLVESGGGLVQPGGSLRLSCKASGIDFSAGYDMCWVRQAPGKGLEWIACIDSRREESDYASWAKGRFTISKDSSKNTVYLQMNSLRAEDTAVYYCARGGYGGDGVDGAFDPWGQGTLVTVSS
B3: 17-22-B03-sc12 (scFv)
scFv: MDIQMTQSPSSLSASVGDRVTITCQASQSISSYLAWYQQKPGKAPKLLIYKASTLASGVPSRFSGSGSGTDFTLTISSLQPEDFATYYCQSTYYEPSYVFRAFGGGTKLTVLGGGGGSGGGGSGGGGSGGGGSEVQLVESGGGLVQPGGSLRLSCKASGIDFSAGYDMCWVRQAPGKGLEWIACIDSRREESDYASWAKGRFTISKDSSKNTVYLQMNSLRAEDTAVYYCARGGYGGDGVDGAFDPWGQGTLVTVSS

Results are given in words; binding and its absence hold for the method and conditions named.

The target in this test is T1, recombinant human TNFβ (human). The test can be described thus: competition ELISA, coated scFv, biotinylated TNFα, unlabeled TNFβ as competitor. For orientation: An ELISA detects its analyte on a solid surface through an enzyme-linked reagent.
Consider B1, for which the binding result is reported as “no binding (tested: 1250 µg/mL)”. Then B2, with “no binding (tested: 1250 µg/mL)”; and B3, with “no binding (tested: 1250 µg/mL)”.
